Assay results as given in PubChem BioAssay (NCATS).
Inconclusive results, whose numbers are uncertain, are shown with a selection of clear calls. Where a call stands in place of a potency, no number is given. For some assays here: Potencies beside an inconclusive call are fits to weak or partial responses and may not hold up. The source made the active and inactive calls. Unless noted, calls follow the shape of the dose curve; as a rule, active = well fitted curve in the direction sought with a large enough effect; inconclusive = small, poorly fitted or top-dose-only effect, or another doubt; inactive = no such curve, though single readings can be large; an effect the other way counts as inactive or inconclusive.

Amino acid sequences for entries named in this document (tags omitted). A change or cut given only in a name is not applied to a line headed by its entry.
UniProt Q12809: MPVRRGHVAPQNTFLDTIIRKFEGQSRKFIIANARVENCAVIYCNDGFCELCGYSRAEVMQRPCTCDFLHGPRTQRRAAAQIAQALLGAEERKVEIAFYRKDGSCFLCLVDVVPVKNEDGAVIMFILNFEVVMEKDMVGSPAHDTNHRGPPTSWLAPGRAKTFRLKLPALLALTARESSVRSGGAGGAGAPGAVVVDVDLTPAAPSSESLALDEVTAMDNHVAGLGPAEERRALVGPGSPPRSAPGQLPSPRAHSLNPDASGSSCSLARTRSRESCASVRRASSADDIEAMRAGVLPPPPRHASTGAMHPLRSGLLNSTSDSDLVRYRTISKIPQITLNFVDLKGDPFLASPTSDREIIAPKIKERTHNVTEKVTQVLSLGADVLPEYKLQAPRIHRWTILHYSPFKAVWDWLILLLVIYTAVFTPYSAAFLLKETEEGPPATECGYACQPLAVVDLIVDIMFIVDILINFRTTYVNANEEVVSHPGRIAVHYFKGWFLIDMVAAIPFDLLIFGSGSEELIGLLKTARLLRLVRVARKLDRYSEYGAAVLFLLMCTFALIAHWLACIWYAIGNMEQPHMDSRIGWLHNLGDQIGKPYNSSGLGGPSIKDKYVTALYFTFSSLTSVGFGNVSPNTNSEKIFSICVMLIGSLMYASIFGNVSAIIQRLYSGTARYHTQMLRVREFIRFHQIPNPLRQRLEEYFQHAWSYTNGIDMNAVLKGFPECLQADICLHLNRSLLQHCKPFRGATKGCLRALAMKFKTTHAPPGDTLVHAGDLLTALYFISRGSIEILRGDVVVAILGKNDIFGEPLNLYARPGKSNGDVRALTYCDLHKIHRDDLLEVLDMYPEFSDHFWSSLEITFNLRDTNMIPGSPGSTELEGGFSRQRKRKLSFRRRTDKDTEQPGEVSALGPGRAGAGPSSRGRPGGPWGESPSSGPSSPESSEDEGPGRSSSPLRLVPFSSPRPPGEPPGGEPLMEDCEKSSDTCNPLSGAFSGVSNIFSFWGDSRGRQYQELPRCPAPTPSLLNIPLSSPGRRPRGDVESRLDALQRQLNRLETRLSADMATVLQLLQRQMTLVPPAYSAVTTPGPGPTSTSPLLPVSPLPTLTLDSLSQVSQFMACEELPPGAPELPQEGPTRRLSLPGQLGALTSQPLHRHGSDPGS
UniProt O89049, whole entry, looked up: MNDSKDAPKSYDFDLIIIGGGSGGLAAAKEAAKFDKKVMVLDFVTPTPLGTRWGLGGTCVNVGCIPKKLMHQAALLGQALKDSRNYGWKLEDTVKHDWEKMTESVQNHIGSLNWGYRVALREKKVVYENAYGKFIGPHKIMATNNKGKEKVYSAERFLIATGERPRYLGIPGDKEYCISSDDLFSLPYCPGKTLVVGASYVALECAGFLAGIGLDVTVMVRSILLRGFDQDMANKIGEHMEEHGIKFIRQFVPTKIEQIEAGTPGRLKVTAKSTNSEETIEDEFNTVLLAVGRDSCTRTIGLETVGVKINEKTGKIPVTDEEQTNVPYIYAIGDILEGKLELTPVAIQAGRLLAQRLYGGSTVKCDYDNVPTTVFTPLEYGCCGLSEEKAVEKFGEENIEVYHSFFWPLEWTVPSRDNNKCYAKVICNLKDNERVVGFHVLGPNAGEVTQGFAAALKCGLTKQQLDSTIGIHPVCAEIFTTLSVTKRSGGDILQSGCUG
UniProt Q14994: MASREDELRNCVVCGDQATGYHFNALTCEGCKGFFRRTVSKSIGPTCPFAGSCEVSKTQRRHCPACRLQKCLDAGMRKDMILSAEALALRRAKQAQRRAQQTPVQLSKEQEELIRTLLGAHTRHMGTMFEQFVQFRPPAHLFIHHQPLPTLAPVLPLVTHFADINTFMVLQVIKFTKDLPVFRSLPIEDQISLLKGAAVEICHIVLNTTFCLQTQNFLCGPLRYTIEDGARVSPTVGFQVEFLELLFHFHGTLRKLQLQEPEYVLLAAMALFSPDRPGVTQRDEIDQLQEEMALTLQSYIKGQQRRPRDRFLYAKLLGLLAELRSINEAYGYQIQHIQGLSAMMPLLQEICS
UniProt P11712, whole entry, looked up: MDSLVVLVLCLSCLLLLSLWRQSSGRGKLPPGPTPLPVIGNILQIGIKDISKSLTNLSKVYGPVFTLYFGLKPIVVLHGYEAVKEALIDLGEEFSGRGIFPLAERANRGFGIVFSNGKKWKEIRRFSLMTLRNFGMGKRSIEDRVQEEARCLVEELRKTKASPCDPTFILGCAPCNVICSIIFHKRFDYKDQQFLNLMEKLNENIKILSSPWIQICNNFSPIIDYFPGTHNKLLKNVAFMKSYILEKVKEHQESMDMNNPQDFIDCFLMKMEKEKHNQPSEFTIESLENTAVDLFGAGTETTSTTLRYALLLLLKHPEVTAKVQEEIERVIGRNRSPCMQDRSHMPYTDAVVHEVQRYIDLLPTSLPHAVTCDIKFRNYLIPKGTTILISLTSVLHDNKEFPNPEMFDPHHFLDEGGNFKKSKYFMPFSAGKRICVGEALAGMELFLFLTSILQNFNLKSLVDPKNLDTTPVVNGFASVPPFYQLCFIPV
UniProt P33261, whole entry, looked up: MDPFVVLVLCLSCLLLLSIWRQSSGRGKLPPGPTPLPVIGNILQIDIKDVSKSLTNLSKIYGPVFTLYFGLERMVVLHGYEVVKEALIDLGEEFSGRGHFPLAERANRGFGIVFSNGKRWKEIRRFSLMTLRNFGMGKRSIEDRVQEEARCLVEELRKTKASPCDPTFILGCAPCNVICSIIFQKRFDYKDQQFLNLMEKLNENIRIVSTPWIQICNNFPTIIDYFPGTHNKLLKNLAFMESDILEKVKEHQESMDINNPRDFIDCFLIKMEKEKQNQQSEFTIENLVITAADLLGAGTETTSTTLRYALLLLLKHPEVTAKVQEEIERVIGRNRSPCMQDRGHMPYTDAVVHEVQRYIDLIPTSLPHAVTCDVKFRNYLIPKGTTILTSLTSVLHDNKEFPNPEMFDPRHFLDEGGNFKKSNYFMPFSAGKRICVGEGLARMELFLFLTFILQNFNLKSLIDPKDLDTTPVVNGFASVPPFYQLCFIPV
UniProt P05177, whole entry, looked up: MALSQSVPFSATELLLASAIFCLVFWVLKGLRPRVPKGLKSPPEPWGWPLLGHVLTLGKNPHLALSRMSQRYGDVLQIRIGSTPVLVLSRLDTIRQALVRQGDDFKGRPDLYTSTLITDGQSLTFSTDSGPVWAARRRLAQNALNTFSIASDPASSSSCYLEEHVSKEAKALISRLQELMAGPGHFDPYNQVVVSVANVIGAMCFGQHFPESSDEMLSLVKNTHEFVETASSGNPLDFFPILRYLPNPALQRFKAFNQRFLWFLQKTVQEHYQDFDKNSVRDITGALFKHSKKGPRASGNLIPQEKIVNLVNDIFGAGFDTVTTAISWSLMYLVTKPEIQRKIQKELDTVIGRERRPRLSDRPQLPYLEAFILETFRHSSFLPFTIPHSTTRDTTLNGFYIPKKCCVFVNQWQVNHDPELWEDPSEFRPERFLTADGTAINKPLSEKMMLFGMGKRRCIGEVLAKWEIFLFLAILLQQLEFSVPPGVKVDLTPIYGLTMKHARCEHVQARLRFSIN
UniProt O75469: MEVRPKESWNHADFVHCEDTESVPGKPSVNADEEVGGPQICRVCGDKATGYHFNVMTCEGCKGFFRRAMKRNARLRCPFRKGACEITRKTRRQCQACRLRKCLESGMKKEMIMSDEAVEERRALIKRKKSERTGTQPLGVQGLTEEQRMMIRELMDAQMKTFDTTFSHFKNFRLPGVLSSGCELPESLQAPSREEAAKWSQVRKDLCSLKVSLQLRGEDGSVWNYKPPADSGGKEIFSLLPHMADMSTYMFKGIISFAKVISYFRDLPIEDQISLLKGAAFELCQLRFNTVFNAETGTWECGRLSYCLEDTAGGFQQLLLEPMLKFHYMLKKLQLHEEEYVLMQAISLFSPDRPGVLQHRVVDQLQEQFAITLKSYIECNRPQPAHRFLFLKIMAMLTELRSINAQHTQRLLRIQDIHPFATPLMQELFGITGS

Key:
[1] = qHTS of Nrf2 Activators: LOPAC Validation (AID 624149); also: potency is read from the fitted curve at half-maximal effect
Summary of the method: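 AREc32 cells carrying an ARE-driven firefly luciferase were grown overnight in OPTI-MEM with 5% FBS, then exposed to compounds for 24 hr at 37 deg C. Luciferase signal was read after 30 min with Steady-Glo at RT.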

ATS189 = test: qHTS profiling for inhibitors of Plasmodium falciparum proliferation (AID 504749); also: nearly all actives have a fitted effect of over 60% in size; settings: P. falciparum in erythrocytes, SYBR Green DNA, 72 h; series mostly up to 28.7 µM
Summary of the method: (§1)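 Three-day growth assay of blood-stage parasites in erythrocytes (0.3% parasitemia, 2.5% hematocrit) at 37 C, 5% CO2, quantified by SYBR Green DNA staining after overnight detergent lysis.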

CP191 = test: as above; settings: P. falciparum in erythrocytes, SYBR Green DNA, 72 h; series mostly up to 28.7 µM
Summary of the method: as §1

CP211 = test: as above; settings: P. falciparum in erythrocytes, SYBR Green DNA, 72 h; series mostly up to 28.7 µM
Summary of the method: as §1

N140 = test: as above; settings: P. falciparum in erythrocytes, SYBR Green DNA, 72 h; series mostly up to 28.7 µM
Summary of the method: as §1

[2] = target: Voltage-gated inwardly rectifying potassium channel KCNH2 (Homo sapiens) (UniProt Q12809); test: qHTS Assay for Small Molecule Inhibitors of the Human hERG Channel Activity (AID 588834);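 also: top concentration of the series differs between compounds; lower thallium flux fluorescence means stronger hERG block; nearly all actives have a fitted effect of over 50% in size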
Summary of the method: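 Blockade is seen as reduced FluxOR thallium-flux fluorescence in U2OS cells expressing hERG from a BacMam construct, in Opti-MEM with 2% FCS. Concentration-response data fitted to the Hill equation for AC50.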

[3] = target: Thioredoxin reductase 1, cytoplasmic (Rattus norvegicus) (UniProt O89049); test: qHTS Assay for Substrates of Mammalian Selenoprotein Thioredoxin Reductase 1 (TrxR1) (AID 488772);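 also: NADPH fluorescence in the first read after selenite addition and not the 8 min delta; potency is read from the fitted curve at half-maximal effect; a drop in NADPH fluorescence below the no-compound background marks a TrxR1 substrate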
Summary of the method: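 Quantitative HTS in Tris-HCl buffer at pH 7.5 with EDTA and Tween-20, using rat TrxR1, 400 uM NADPH and 400 uM selenite (final). A fall in initial NADPH fluorescence relative to background marked substrate behaviour.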

[4] = S16 Schwann cell PMP22 intronic element beta-lactamase assay (AID 624044; calls by dose curve; also: nearly all actives have a fitted effect of over 15% in size); settings: S16 rat Schwann cells, PMP22 element beta-lactamase FRET, 24 h; ratio activity, negative = inhibition: at 38.3 µM (top of the series) unless noted
Summary of the method: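 Rat S16 Schwann cells with beta-Lac driven by a PMP22 intronic element, compound-treated 24 h at 37 °C. LiveBLAzer FRET B/G read: 460 nm normalized to potassium clavulanate vs DMSO; 535 nm FRET as viability; concentration-effect curves classified.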

C2A = test: qHTS profiling for inhibitors of Plasmodium falciparum proliferation (AID 504749); also: nearly all actives have a fitted effect of over 60% in size; settings: P. falciparum in erythrocytes, SYBR Green DNA, 72 h; series mostly up to 28.7 µM
Summary of the method: as §1

PAD = test: as above; settings: P. falciparum in erythrocytes, SYBR Green DNA, 72 h; series mostly up to 28.7 µM
Summary of the method: as §1

[5] = Cell Viability - LYMP2-022 (AID 987); settings: LYMP2-022 lymphoblastoid cell viability; at 92.2 µM (top of the series); also: nearly all actives have a fitted effect of over 55% in size
Summary of the method: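 Human lymphoblastoid cells, 2500/well, preincubated 5 hr at 37 C, then exposed to compounds over a concentration range for 24 hr at 37 C in complete medium. Viability read as intracellular ATP by CellTiter-Glo luminescence after 30 min at room temperature; AC50 from Hill fits.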

[6] = target: Nuclear receptor subfamily 1 group I member 3 (Homo sapiens) (UniProt Q14994); test: Primary qHTS for agonist of constitutive androstane receptor (CAR) against the NCATS DSHEA and TCM libraries (AID 1794839);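 also: HepG2 cells expressing human CAR with a CYP2B6 reporter plus PK11195 antagonist; luciferase reporter luminescence read with ONE-Glo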
Summary of the method: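 Concentration–response screen in HepG2-CYP2B6-hCAR cells under 0.75 µM PK11195; 24 h exposure; luminescent reporter signal with multiplexed fluorescent viability.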

[7] = target: Cytochrome P450 2C9 (Homo sapiens) (UniProt P11712); test: qHTS for inhibitors of CYP2C9 against the NCATS DSHEA and TCM libraries (AID 1919973);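 also: luminogenic pro-luciferin CYP2C9 substrate turned into luciferin with NADPH regeneration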
Summary of the method: (§2)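 Luminescent P450-Glo readout. Enzyme plus pro-luciferin substrate in manufacturer buffer (typically 100 mM KPO4); 15 min RT preincubation; 1x NADPH regenerating system, 30-45 min RT in the dark; detection reagent 30 min.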

[8] = target: Cytochrome P450 2C19 (Homo sapiens) (UniProt P33261); test: qHTS for inhibitors of CYP2C19 against the NCATS DSHEA and TCM libraries (AID 1919974);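 also: luminescence from luciferin released by CYP2C19 oxidation of a pro-luciferin substrate; potency is read from the fitted curve at half-maximal effect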
Summary of the method: as §2

[9] = target: Cytochrome P450 1A2 (Homo sapiens) (UniProt P05177); test: qHTS for inhibitors of CYPIA2 against the NCATS DSHEA and TCM libraries (AID 1919976); also: potency is read from the fitted curve at half-maximal effect
Summary of the method: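 Human CYP1A2 with its pro-luciferin substrate in supplier buffer (typically 100 mM KPO4) was pre-incubated with compounds 15 min at RT. Reaction was started with 1x NADPH regeneration solution and run 30-45 min at RT in the dark, then luminescence was read after P450-Glo detection reagent (30 min RT).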

[10] = target: Nuclear receptor subfamily 1 group I member 2 (Homo sapiens) (UniProt O75469); test: Dual reporter qHTS for antagonist of Pregnane X Receptor (hPXR) against the NCATS DSHEA and TCM libraries: Luminescence Readout (AID 1920060); settings: hPXR dual reporter cells, luciferase luminescence, antagonist mode; activity change, negative = inhibition: at 40 µM (top of the series)
Summary of the method: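 In antagonist mode, 2 uM rifampicin was added to hPXR-Luc HepG2 cells alongside test substances, incubated 24 h at 37 C; luminescence gave reporter activity, and CellTiter-Fluor fluorescence (405/540 nm) gave viability.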

ATS95 = test: qHTS profiling for inhibitors of Plasmodium falciparum proliferation (AID 504749); also: nearly all actives have a fitted effect of over 60% in size; settings: P. falciparum in erythrocytes, SYBR Green DNA, 72 h; series mostly up to 28.7 µM
Summary of the method: as §1

CP217 = test: as above; settings: P. falciparum in erythrocytes, SYBR Green DNA, 72 h; series mostly up to 28.7 µM
Summary of the method: as §1

CP325 = test: as above; settings: P. falciparum in erythrocytes, SYBR Green DNA, 72 h; series mostly up to 28.7 µM
Summary of the method: as §1

TAB113 = test: as above; settings: P. falciparum in erythrocytes, SYBR Green DNA, 72 h; series mostly up to 28.7 µM
Summary of the method: as §1

## Nc1nc2c(cnn2CCc2ccccc2)c2nc(-c3ccco3)nn12
[1]
  Potency: inconclusive: 0.731 µM [activator, full curve]

## C[Se]CCC(N)C(=O)O (stereo not given)
ATS189
  Potency: inactive
CP191
  Potency: inactive
CP211
  Potency: inactive
N140
  Potency: inactive

## CCCCC[C@H](CC(=O)NO)C(=O)N[C@H](C(=O)N1CCC[C@H]1CO)C(C)C
[2]
  Potency: inactive

## NCCS
[3]
  Potency: inconclusive: 18.9 µM [inhibitor, partial curve]
[4]
  ratio activity, negative = inhibition: inconclusive: 1.77%
C2A
  Potency: inactive

## O=C(O)c1ccc[n+]([O-])c1
PAD
  Potency: inactive

## Nc1ccc(C(=O)O)cc1
[5]
  viability change, negative = cytotoxic: inactive: -11%
[6]
  Potency: inactive
[7]
  Potency: inactive
[8]
  Potency: inconclusive: 3.55 µM [inhibitor, full curve]
[9]
  Potency: inconclusive: 3.55 µM [inhibitor, full curve]
[10]
  Potency: inconclusive: 20 µM [inhibitor, partial curve, poor fit]
ATS95
  Potency: inactive
CP217
  Potency: inactive
CP325
  Potency: inactive
TAB113
  Potency: inactive
